In patent US20240342161A1, “BISBENZYLISOQUINOLINES AS CONDITIONING AGENTS FOR IMMUNE THERAPY” (priority 2023, published 2024):

Test system: K562 cells
Experiment: Protein recovered from K562 cell lysates after Tetrandrine exposure (BCA protein assay)
Format: cell-based, human
Conditions: 24 hours, 8×10^6 K562 cells

## 6,6′,7,12-tetramethoxy-2,2′-dimethyl-berbaman [ES-3000]
0.1 μM
  Protein Recovered: 1.1 mg
1 μM
  Protein Recovered: 1.1 mg
5 μM
  Protein Recovered: 1.0 mg
10 μM
  Protein Recovered: 1.1 mg
20 μM
  Protein Recovered: 1.0 mg
40 μM
  Protein Recovered: 0.9 mg
